Source: PubChem BioAssay AID1671190 (National Center for Advancing Translational Sciences (NCATS), 2021)
Out of some 580,000 compounds screened, about 6,100 (1.1%) were called active. Inconclusive results, whose numbers are uncertain, are shown with a selection of clear calls. The call rests on the fitted dose curve; in most records, active means well fitted inhibition curve with a large enough effect; inconclusive means small, poorly fitted or top-dose-only effect, or another doubt; inactive means no such curve, though single readings can be large or run the other way. A potency beside an inconclusive call is a rough fit, not a confirmed value.

The chains behind the UniProt entries cited, without tags or fusion partners.
UniProt P18054, whole entry, looked up: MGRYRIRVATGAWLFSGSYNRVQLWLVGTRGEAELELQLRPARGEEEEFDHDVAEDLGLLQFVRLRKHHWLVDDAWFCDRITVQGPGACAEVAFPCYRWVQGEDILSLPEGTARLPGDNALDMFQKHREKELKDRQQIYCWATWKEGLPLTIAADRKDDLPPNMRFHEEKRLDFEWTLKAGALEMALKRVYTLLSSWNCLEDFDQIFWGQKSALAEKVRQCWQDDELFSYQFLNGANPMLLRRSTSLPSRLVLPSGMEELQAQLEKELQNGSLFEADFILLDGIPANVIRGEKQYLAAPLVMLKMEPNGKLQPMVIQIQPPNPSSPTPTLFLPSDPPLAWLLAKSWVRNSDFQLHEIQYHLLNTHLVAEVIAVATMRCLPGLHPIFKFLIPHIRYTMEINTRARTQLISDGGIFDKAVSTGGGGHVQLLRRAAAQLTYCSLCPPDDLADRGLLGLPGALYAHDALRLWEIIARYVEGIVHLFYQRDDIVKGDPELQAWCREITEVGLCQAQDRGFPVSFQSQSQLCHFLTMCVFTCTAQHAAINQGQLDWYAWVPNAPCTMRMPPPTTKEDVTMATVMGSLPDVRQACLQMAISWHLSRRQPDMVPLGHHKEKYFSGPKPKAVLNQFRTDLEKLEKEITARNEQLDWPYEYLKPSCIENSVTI

Molecular target: Polyunsaturated fatty acid lipoxygenase ALOX12 (Homo sapiens) (UniProt P18054)
Test: Primary qHTS assay for inhibitors of human arachidonate 12S-lipoxygenase (ALOX12): Round 2
Details: purified 12hLO, xylenol orange hydroperoxide absorbance; activity change, negative = inhibition: at 108 µM (top of the series) unless noted
Outline: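 Purified human 12hLO (150 nM final) in 25 mM Hepes, 0.01% Triton X-100, pH 7.0 was preincubated 15 min at room temperature with compound. Then 40 uM arachidonic acid was added, 30 min. Hydroperoxide was read by Fe-XO absorbance ratio 573/405 nm.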
On the % scale 0 is the no-effect control and ±100 the full control effect; potency means the concentration at half of the fitted maximal effect.

Structure (SMILES) | activity change, negative = inhibition | Potency
COc1ccc(-c2cc(C(F)(F)F)nc(-n3cncn3)n2)cc1 | inactive: -22.8% | 
CCOC(=O)C[C@@H]1C[C@@H](C(C)C)[C@H](CNC(=O)C(C)(C)C)C=C1C | inactive: 18.6% [at 176 µM] | 
Clc1ccccc1/C=N/Nc1ccccc1 |  | inconclusive: 1.12 µM [inhibitor, full curve, poor fit]
Cc1cc2c(cc1CNC1CC(C)(C)Cc3nc(C(C)(C)C)ncc31)OCO2 (centres undefined) | inactive: 1.68% | 
Cn1c(=O)n(CC(=O)Nc2ccccc2)c2ccccc21 |  | inconclusive: 126 µM [inhibitor, single point]
CCCC12CCC(NC(C)=O)(CC1)CC2 | inactive: -6.85% | 
Cc1cc(C(=O)N/N=C/c2ccc([N+](=O)[O-])o2)c(C)o1 |  | inconclusive: 44.7 µM [inhibitor, partial curve, poor fit]
COc1ccc(S(=O)(=O)N2CCCCC2c2cc(C(=O)Nc3ccccc3)no2)cc1 (centres undefined) | inactive: 0.146% | 
Cc1cc(=O)[nH]c(SCn2nnc3ccccc3c2=O)n1 |  | inconclusive: 35.5 µM [inhibitor, partial curve]
CCCNc1nc2ccccc2nc1C(=O)Nc1c(C)cccc1CC |  | inconclusive: 112 µM [inhibitor, partial curve, poor fit]
COc1cc(NC(=O)CSc2nc3c(C)ccc(C)c3cc2C)c(C(=O)O)cc1OC |  | inconclusive: 50.1 µM [inhibitor, partial curve, poor fit]
CCCCn1nc(C(=O)NCCN2CCOCC2)c2ccccc2c1=O |  | inconclusive: 158 µM [inhibitor, single point]
CCCCCCCCN1C(=O)[C@H](CC(=O)N2CCN(C(=O)c3ccco3)CC2)C[C@@]2(C(=O)OCC)CCCC=C12 |  | inconclusive: 112 µM [inhibitor, single point]
O=C1CCCCC(CNC(=O)c2ccc3ncccc3c2)N1 (centres undefined) | inactive: 33.2% | 
CCN(CC)c1ccc(C=Nc2cccnc2Cl)c(O)c1 |  | inconclusive: 112 µM [inhibitor, single point]
Cc1cc(C)n(CC(C)NCc2cn[nH]c2-c2ccc(C)c(C)c2)n1 (centres undefined) | inactive: 0.328% | 
Cc1ccc(C)c(OCCCNCc2ccccc2)c1 |  | inconclusive: 28.2 µM [inhibitor, partial curve, poor fit]
Cc1ccc(C(=O)/C(=C\c2cccc(Br)c2)c2nc3ccccc3o2)cc1 | inactive: -3.94% | 
NS(=O)(=O)c1ccc(CNC(=O)c2ccc3c(=O)n4c(nc3c2)CCC4)cc1 |  | inconclusive: 56.2 µM [inhibitor, partial curve, poor fit]
CC(C)(C)c1ccc(C(=O)NC2(C(F)(F)F)C(=O)Nc3c2c(=O)[nH]c(=O)n3-c2ccccc2)cc1 (centres undefined) |  | inconclusive: 50.1 µM [inhibitor, partial curve, poor fit]
CC1=C(C(=O)OCc2ccccc2)C(c2ccc3c(c2)OCO3)NC(=O)N1CCCC(=O)O (centres undefined) | inactive: -13.7% | 
COc1ccc(C(CCNCc2ccc(F)cc2)c2ccc(F)cc2)cc1 (centres undefined) |  | inconclusive: 63.1 µM [inhibitor, partial curve, poor fit]

Part of the list above, with tabs.
Structure (SMILES)	activity change, negative = inhibition	Potency
O=C1CCCCC(CNC(=O)c2ccc3ncccc3c2)N1 (centres undefined)	inactive: 33.2%	
CCN(CC)c1ccc(C=Nc2cccnc2Cl)c(O)c1		inconclusive: 112 µM [inhibitor, single point]

Two entries from above, in markdown.

| Structure (SMILES) | activity change, negative = inhibition | Potency |
| --- | --- | --- |
| Cc1ccc(C(=O)/C(=C\c2cccc(Br)c2)c2nc3ccccc3o2)cc1 | inactive: -3.94% |  |
| NS(=O)(=O)c1ccc(CNC(=O)c2ccc3c(=O)n4c(nc3c2)CCC4)cc1 |  | inconclusive: 56.2 µM [inhibitor, partial curve, poor fit] |

Additional results follow:

Structure (SMILES) | activity change, negative = inhibition | Potency
COC(=O)c1c(C)oc2ccc(N(C(=O)c3ccncc3)S(=O)(=O)c3c(C)cc(C)cc3C)cc12 | inactive: -7.23% | 
CC1(COc2ccccc2)COc2ccc(C(=O)NCc3ccc4c(c3)OCO4)cc2N1 (centres undefined) |  | inconclusive: 17.8 µM [inhibitor, full curve]
Cc1cc(C)cc(NC(=S)NCc2ccc3c(c2)OCO3)c1 |  | inconclusive: 44.7 µM [inhibitor, partial curve, poor fit]
COP(=O)(OC)c1nc(Cc2ccccc2)oc1NCc1ccc2c(c1)OCO2 | inactive: -20.2% | 
COc1ccc(-n2c(=O)c(-c3ccc(Cl)cc3)nc3cncnc32)cc1 |  | inconclusive: 31.6 µM [inhibitor, partial curve, poor fit]
Cc1sc2ncn(CC(=O)N3CCN(c4ccc(Cl)cc4)CC3)c(=O)c2c1S(=O)(=O)N1CCN(c2ncccn2)CC1 | inactive: -10.8% | 
CSCC[C@H](NC(=O)CSc1cc(Cl)ccc1Cl)c1nc2ccccc2[nH]1 |  | active: 44.7 µM
CCOC(=O)CP(=O)(c1ccccc1)c1ccccc1 | inactive: 423% | 
O=C(c1cccc(S(=O)(=O)N2CCN(c3ccc(F)cc3)CC2)c1)N1CCCC(C(F)(F)F)C1 (centres undefined) | inactive: -14.7% | 
Cc1cc(C)cc(Cn2cc(CN3CC(N4CCN(CCN(C)C)CC4)CS3(=O)=O)nn2)c1 (centres undefined) |  | inconclusive: 5.62 µM [inhibitor, full curve]
CC(=O)Oc1ccc(N2C(=O)CC(N3CCOCC3)C2=O)cc1 (centres undefined) |  | inconclusive: 7.94 µM [inhibitor, full curve]
Oc1ccc(-c2cn3ccsc3n2)cc1 |  | inconclusive: 0.355 µM [inhibitor, full curve, poor fit]
COC(=O)c1ccc2nc(C3CCCCC3)c(CC(C)(C)C)n2c1 |  | inconclusive: 44.7 µM [inhibitor, partial curve, poor fit]
O=C(Nc1cccnc1)c1ccccc1-c1ccccc1 | inactive: -5.16% | 
CCOC(=O)c1cc2cc(C#N)ccc2[nH]1 | inactive: -46.2% | 
c1csc(CNc2ncnc3ccc(-c4ccc5c(c4)OCCO5)cc23)c1 |  | inconclusive: 89.1 µM [inhibitor, partial curve, poor fit]
Cc1c(C#N)c2ncn(Cc3ccccc3)c(=O)c2n1-c1ccccc1 |  | inconclusive: 126 µM [inhibitor, single point]
CC1=Nc2cc(C(=O)NCCc3ccccc3)ccc2Sc2c(C)ccc(C)c21 |  | inconclusive: 5.62 µM [inhibitor, full curve, poor fit]
CCCc1cc(=O)oc2cc(OS(=O)(=O)c3c(C)c(C)cc(C)c3C)ccc12 | inactive: 6.58% | 
COc1ccc(S[C@]2(c3nc(C)no3)CC(=O)N(c3ccc(Cl)cc3)[C@@H]2c2ccc(OC)cc2)cc1 |  | inconclusive: 89.1 µM [inhibitor, partial curve, poor fit]
COc1ccc(C(C)=O)cc1COC(=O)c1cccc(N(C)C)c1 |  | inconclusive: 50.1 µM [inhibitor, partial curve, poor fit]
COc1ccc(CN2C[C@H]3CN(Cc4ccc(C)cc4)CCN3C2=O)cc1 |  | inconclusive: 20 µM [inhibitor, full curve, poor fit]
